# According to the supplement of paper PMC6411743:
# ± gives the standard deviation of the averaged measurements. Only a part is listed here, and it is no random draw.
# How the values were obtained:
# Assay in all cases: NP40-soluble protein abundance relative to vehicle (solubility fold change) (ratio); higher = more soluble protein in presence of AMP-PNP
# [1] = biological target: T1, UniProt O43310 and related entries
# T1 sequence (whole entry): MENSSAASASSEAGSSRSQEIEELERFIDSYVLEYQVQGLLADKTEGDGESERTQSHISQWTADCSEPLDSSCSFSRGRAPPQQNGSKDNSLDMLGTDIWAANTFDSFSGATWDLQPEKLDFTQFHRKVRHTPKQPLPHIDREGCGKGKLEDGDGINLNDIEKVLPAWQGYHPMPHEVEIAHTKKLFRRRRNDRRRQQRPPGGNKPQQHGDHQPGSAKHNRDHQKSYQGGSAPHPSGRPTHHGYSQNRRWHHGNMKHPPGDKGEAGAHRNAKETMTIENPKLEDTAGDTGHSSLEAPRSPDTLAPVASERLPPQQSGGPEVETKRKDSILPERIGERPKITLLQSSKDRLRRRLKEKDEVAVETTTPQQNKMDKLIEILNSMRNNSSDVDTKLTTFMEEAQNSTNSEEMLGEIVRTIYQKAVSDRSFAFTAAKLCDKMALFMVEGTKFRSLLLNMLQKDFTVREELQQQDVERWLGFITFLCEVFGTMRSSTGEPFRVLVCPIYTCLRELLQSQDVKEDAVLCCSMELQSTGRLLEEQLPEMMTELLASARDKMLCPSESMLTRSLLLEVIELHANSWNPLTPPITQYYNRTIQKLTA
# In short: (§1)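 Across three independent experiments, values are fold changes against the detergent-processed vehicle for each replicate, based on vsn-normalised intensities. The samples were Jurkat crude lysate treated with eight concentrations (0.1 to 10 mM) for 10 min at room temperature and then 3 min at 37 °C. Lysate was solubilised with 0.8% NP40 and benzonase, ultracentrifuged, and the supernatant analysed by TMT-labelled LC-MS/MS.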
# [2] = biological target: T2, UniProt O43318-2|O43318
# T2 sequence (whole entry): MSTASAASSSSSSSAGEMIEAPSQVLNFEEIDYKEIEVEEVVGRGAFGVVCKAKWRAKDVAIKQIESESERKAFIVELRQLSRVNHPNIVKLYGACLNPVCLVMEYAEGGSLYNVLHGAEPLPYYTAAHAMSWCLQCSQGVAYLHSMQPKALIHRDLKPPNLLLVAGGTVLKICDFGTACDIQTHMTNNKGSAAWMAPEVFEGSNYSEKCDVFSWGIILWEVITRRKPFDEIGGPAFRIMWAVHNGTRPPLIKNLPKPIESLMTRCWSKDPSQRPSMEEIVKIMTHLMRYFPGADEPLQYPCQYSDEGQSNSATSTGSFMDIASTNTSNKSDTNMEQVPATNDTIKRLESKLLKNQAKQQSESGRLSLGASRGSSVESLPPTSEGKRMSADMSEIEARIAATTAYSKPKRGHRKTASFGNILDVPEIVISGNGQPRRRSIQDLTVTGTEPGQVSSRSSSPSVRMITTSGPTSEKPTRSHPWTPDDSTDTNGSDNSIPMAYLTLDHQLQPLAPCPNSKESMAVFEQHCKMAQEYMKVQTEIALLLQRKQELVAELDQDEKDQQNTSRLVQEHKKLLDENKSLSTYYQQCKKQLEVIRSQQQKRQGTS
# In short: as §1
# [3] = biological target: T3, UniProt O43402 and related entries
# T3 sequence (whole entry): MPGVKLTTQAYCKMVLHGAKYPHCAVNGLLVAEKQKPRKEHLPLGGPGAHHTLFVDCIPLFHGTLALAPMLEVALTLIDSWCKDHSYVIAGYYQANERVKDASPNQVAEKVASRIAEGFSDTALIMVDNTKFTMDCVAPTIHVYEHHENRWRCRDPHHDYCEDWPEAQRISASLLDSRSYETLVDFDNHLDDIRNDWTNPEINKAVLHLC
# In short: as §1
# [4] = biological target: T4, UniProt O43861 and related entries
# T4 sequence (whole entry): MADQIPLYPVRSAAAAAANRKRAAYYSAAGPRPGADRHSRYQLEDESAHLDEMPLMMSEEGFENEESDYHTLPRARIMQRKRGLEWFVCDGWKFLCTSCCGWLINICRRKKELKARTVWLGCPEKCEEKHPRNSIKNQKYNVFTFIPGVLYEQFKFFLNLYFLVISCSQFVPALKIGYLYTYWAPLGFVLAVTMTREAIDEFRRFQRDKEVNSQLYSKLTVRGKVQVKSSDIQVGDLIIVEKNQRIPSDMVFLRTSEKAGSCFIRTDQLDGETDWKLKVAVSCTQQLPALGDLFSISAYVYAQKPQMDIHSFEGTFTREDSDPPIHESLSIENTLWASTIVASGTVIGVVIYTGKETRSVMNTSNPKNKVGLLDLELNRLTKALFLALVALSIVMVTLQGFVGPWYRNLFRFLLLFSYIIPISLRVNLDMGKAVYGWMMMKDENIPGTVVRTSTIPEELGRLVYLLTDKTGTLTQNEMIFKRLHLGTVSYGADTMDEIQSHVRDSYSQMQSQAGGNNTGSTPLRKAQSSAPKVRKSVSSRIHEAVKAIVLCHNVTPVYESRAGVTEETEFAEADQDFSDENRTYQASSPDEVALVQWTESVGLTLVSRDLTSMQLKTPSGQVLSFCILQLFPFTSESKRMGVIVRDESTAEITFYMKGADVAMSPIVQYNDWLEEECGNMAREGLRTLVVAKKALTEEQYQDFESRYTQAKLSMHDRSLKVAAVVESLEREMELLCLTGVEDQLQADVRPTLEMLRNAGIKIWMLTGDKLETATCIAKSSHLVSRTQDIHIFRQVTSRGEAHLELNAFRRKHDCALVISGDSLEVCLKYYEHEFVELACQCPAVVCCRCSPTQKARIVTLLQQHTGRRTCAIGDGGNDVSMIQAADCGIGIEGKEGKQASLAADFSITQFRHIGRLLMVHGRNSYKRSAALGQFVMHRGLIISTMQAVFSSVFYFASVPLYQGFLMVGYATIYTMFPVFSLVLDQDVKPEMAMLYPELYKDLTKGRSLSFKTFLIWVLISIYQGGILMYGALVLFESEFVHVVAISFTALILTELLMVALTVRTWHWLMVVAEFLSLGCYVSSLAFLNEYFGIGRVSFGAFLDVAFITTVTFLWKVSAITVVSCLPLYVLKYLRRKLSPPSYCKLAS
# In short: as §1
# [5] = biological target: T5, ZW10 (UniProt O43264)
# T5 sequence (whole entry): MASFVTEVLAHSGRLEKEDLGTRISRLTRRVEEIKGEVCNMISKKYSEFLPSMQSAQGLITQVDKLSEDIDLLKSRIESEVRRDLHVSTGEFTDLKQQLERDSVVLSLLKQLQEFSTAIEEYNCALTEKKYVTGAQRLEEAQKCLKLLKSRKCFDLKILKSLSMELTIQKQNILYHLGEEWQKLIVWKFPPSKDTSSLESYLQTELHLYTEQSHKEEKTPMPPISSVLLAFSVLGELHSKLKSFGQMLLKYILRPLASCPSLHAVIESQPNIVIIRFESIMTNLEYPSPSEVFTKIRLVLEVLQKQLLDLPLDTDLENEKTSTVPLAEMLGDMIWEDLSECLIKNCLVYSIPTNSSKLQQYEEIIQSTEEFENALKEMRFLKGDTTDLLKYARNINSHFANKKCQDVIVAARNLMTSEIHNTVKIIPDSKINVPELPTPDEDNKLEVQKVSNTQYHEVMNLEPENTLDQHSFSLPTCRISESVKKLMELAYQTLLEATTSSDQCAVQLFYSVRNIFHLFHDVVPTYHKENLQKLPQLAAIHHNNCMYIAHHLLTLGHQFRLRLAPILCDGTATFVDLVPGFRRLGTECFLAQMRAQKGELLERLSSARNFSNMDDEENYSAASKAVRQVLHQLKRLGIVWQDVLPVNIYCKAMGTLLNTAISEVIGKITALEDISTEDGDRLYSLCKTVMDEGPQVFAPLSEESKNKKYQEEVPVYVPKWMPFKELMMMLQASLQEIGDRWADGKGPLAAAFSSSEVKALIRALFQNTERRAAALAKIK
# In short: as §1
structure (smiles),measurement,setting,value
Nc1ncnc2c1ncn2[C@@H]1O[C@H](COP(=O)(O)OP(=O)(O)NP(=O)(O)O)[C@@H](O)[C@H]1O [adenylyl imidodiphosphate],NP40-soluble protein abundance,[1]; concentration: 8mM,1.04 ± 0.035
same,NP40-soluble protein abundance,[1]; concentration: 10mM,1.09 ± 0.055
same,NP40-soluble protein abundance,[2]; concentration: 1mM,1.01 ± 0.01
same,NP40-soluble protein abundance,[2]; concentration: 2mM,1.05 ± 0.05
same,NP40-soluble protein abundance,[2]; concentration: 4mM,1.03 ± 0.029
same,NP40-soluble protein abundance,[2]; concentration: 6mM,1.01 ± 0.039
same,NP40-soluble protein abundance,[2]; concentration: 8mM,0.999 ± 0.012
same,NP40-soluble protein abundance,[2]; concentration: 10mM,0.987 ± 0.013
same,NP40-soluble protein abundance,[3]; concentration: 1mM,1.01 ± 0.026
same,NP40-soluble protein abundance,[3]; concentration: 2mM,0.945 ± 0.031
same,NP40-soluble protein abundance,[3]; concentration: 4mM,0.965 ± 0.041
same,NP40-soluble protein abundance,[3]; concentration: 6mM,0.942 ± 0.019
same,NP40-soluble protein abundance,[3]; concentration: 8mM,0.979 ± 0.037
same,NP40-soluble protein abundance,[3]; concentration: 10mM,0.947 ± 0.048
same,NP40-soluble protein abundance,[4]; concentration: 1mM,1.01 ± 0.022
same,NP40-soluble protein abundance,[4]; concentration: 2mM,1 ± 0.012
same,NP40-soluble protein abundance,[4]; concentration: 4mM,1.01 ± 0.025
same,NP40-soluble protein abundance,[4]; concentration: 6mM,0.986 ± 0.013
same,NP40-soluble protein abundance,[4]; concentration: 8mM,1 ± 0.041
same,NP40-soluble protein abundance,[4]; concentration: 10mM,1.024 ± 0.0049
same,NP40-soluble protein abundance,[5]; concentration: 1mM,0.994 ± 0.031
same,NP40-soluble protein abundance,[5]; concentration: 2mM,0.974 ± 0.043
same,NP40-soluble protein abundance,[5]; concentration: 4mM,0.977 ± 0.047
same,NP40-soluble protein abundance,[5]; concentration: 6mM,0.936 ± 0.064
same,NP40-soluble protein abundance,[5]; concentration: 8mM,0.919 ± 0.081
same,NP40-soluble protein abundance,[5]; concentration: 10mM,0.941 ± 0.07

# Reprinted from the entries so far (8 entries):
structure (smiles),measurement,setting,value
Nc1ncnc2c1ncn2[C@@H]1O[C@H](COP(=O)(O)OP(=O)(O)NP(=O)(O)O)[C@@H](O)[C@H]1O [adenylyl imidodiphosphate],NP40-soluble protein abundance,[3]; concentration: 8mM,0.979 ± 0.037
same,NP40-soluble protein abundance,[3]; concentration: 10mM,0.947 ± 0.048
same,NP40-soluble protein abundance,[4]; concentration: 1mM,1.01 ± 0.022
same,NP40-soluble protein abundance,[4]; concentration: 2mM,1 ± 0.012
same,NP40-soluble protein abundance,[4]; concentration: 4mM,1.01 ± 0.025
same,NP40-soluble protein abundance,[4]; concentration: 6mM,0.986 ± 0.013
same,NP40-soluble protein abundance,[4]; concentration: 8mM,1 ± 0.041
same,NP40-soluble protein abundance,[4]; concentration: 10mM,1.024 ± 0.0049
